The test has as its target T1, endogenous Bcl3 (B cell leukemia/lymphoma 3) of mouse liver (mouse (endogenous in liver)) (UniProt Q9Z2F6).
T1 sequence: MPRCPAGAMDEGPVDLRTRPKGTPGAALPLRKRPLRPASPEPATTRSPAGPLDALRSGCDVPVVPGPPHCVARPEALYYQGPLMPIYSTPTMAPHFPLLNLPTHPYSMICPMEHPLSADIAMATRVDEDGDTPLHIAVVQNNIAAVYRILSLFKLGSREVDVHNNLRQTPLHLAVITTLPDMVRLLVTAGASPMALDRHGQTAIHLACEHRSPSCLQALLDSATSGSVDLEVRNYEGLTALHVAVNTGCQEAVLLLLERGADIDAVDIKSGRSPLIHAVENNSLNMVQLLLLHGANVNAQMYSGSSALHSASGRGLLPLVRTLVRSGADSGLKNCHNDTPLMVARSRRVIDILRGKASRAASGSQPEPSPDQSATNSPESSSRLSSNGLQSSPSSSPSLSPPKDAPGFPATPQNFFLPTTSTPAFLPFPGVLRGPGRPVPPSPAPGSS
Kind of test: co-IP; endogenous Bcl3 immunoprecipitated with an anti-Bcl3 antibody from liver homogenates of WT mice; Nrf2 detected by Western blotting. (In general: Immunoblotting shows a protein as a band on a membrane.)

These are yes or no findings as the source states them, for the method shown. In cells and extracts the contact can be indirect. Some results given as binding are weak or reduced against the parent protein; the word gives no strength.

B1: endogenous Nrf2 (nuclear factor erythroid 2 like 2) of mouse liver (protein, UniProt Q60795 1-597)
chain: MMDLELPPPGLQSQQDMDLIDILWRQDIDLGVSREVFDFSQRQKDYELEKQKKLEKERQEQLQKEQEKAFFAQFQLDEETGEFLPIQPAQHIQTDTSGSASYSQVAHIPKQDALYFEDCMQLLAETFPFVDDHESLALDIPSHAESSVFTAPHQAQSLNSSLEAAMTDLSSIEQDMEQVWQELFSIPELQCLNTENKQLADTTAVPSPEATLTEMDSNYHFYSSISSLEKEVGNCGPHFLHGFEDSFSSILSTDDASQLTSLDSNPTLNTDFGDEFYSAFIAEPSDGGSMPSSAAISQSLSELLDGTIEGCDLSLCKAFNPKHAEGTMEFNDSDSGISLNTSPSRASPEHSVESSIYGDPPPGFSDSEMEELDSAPGSVKQNGPKAQPAHSPGDTVQPLSPAQGHSAPMRESQCENTTKKEVPVSPGHQKAPFTKDKHSSRLEAHLTRDELRAKALHIPFPVEKIINLPVDDFNEMMSKEQFNEAQLALIRDIRRRGKNKVAAQNCRKRKLENIVELEQDLGHLKDEREKLLREKGENDRNLHLLKRRLSTLYLEVFSMLRDEDGKPYSPSEYSLQQTRDGNVFLVPKSKKPDTKKN
Take B1: the binding result was “binds”.

These data come from paper PMC12003009.
